# Test results taken from doi:10.1101/2023.12.07.570680.
# Results are given in words; binding and its absence hold for the method and conditions named. Tags and fused reporters may be left off the sequences shown.
# T1: EMB976 (yeast two-hybrid fusion, transit peptide removed) (Arabidopsis thaliana) (UniProt O04647)
# T1 sequence: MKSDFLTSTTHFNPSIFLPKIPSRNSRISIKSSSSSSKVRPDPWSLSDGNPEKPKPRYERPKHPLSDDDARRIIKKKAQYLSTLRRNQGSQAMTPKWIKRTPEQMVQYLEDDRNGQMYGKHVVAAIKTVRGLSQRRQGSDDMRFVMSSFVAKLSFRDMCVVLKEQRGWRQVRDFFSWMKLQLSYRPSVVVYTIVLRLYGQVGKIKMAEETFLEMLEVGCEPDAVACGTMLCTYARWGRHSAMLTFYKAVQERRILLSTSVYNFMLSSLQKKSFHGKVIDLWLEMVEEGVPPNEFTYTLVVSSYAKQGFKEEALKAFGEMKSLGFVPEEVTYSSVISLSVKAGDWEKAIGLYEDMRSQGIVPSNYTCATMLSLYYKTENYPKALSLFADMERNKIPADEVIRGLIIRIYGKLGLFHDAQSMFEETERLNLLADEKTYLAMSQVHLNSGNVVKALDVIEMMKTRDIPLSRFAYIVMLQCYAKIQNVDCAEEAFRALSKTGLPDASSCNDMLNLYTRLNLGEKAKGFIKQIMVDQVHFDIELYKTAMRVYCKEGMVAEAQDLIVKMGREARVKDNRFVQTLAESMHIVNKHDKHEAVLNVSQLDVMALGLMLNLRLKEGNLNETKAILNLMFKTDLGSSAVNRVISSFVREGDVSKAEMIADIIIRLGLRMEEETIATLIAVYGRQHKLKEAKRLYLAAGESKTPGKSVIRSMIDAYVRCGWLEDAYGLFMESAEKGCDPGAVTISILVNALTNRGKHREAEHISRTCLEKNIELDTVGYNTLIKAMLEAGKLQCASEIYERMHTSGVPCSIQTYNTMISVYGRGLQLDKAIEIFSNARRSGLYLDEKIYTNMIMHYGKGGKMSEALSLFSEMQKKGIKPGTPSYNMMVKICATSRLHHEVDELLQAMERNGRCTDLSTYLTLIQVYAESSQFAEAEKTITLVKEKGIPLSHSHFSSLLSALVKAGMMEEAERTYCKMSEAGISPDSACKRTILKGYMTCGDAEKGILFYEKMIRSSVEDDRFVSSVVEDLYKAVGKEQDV
# T2: MatK (yeast two-hybrid fusion) (UniProt P56784)
# T2 sequence: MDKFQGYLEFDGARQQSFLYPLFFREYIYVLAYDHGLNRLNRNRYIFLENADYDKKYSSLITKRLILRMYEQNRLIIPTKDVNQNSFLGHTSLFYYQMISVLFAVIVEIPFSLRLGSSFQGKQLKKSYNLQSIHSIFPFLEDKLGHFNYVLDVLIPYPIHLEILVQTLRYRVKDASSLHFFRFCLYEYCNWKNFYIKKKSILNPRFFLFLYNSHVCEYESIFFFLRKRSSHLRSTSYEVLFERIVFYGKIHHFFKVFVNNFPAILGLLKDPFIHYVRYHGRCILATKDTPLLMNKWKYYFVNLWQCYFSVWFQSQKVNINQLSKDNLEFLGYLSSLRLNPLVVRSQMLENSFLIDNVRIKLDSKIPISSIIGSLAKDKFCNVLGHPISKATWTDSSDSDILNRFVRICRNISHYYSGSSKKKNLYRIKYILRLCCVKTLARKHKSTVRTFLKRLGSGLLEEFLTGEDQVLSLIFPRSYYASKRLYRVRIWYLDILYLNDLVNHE
# B1: EMB1006 (yeast two-hybrid fusion, transit peptide removed) (protein, UniProt Q9FGR7 45-723)
# chain: ATSPSSSSSSPSIFLSCFDDALPDKIQQPENSTINSEESECEEEDDEEGDDFTDPILKFFKSRTLTSESTADPARESKFSLQKNRRTSWHLAPDFADPETEIESKPEESVFVTNQQTLGVHIPFESGVAREILELAKNLKENQTLGEMLSGFERRVSDTECVEALVMMGESGFVKSCLYFYEWMSLQEPSLASPRACSVLFTLLGRERMADYILLLLSNLPDKEEFRDVRLYNAAISGLSASQRYDDAWEVYEAMDKINVYPDNVTCAILITTLRKAGRSAKEVWEIFEKMSEKGVKWSQDVFGGLVKSFCDEGLKEEALVIQTEMEKKGIRSNTIVYNTLMDAYNKSNHIEEVEGLFTEMRDKGLKPSAATYNILMDAYARRMQPDIVETLLREMEDLGLEPNVKSYTCLISAYGRTKKMSDMAADAFLRMKKVGLKPSSHSYTALIHAYSVSGWHEKAYASFEEMCKEGIKPSVETYTSVLDAFRRSGDTGKLMEIWKLMLREKIKGTRITYNTLLDGFAKQGLYIEARDVVSEFSKMGLQPSVMTYNMLMNAYARGGQDAKLPQLLKEMAALNLKPDSITYSTMIYAFVRVRDFKRAFFYHKMMVKSGQVPDPRSYEKLRAILEDKAKTKNRKDKTAILGIINSKFGRVKAKTKGKKDEFWKYKTNRTTSPGRHRS
# Legend:
# [1] = molecular target: T1, EMB976 (yeast two-hybrid fusion, transit peptide removed) (Arabidopsis thaliana); assay: two-hybrid
# [2] = molecular target: T2, MatK (yeast two-hybrid fusion); assay: two-hybrid
binder,measurement,setting,value
B1,binding,[1],no binding
same,binding,[2],no binding
